Some entries share one result that the patent states for a list of compounds.
system: T-lymphoid cells; assay: Cytotoxicity by microscopic examination of cells in the spread assay; format: cell-based; details: no cytotoxicity at concentrations of up to 8 micromolar; spread assay cultures

Row | SMILES | cytotoxicity (lowest concentration at which a morphological change is observed) [micromolar]
1 | Cc1cc(C)cc(S(=O)(=O)c2c(C(N)=O)[nH]c(C(=O)N3CCCc4ccccc4C3)c2C)c1 [Example 79, 4-Methyl-3-(3,5-dimethylphenylsulfonyl)-5-(1,3,4,5-tetrahydro-2H-2-benzazepine-2-ylcarbonyl)-1H-pyrrole-2-carboxamide] | > 8
2 | Cc1cc(C)cc(S(=O)(=O)c2c(C(N)=O)[nH]c(C(=O)N3CCCc4sccc4C3)c2C)c1 [Example 80, 3-[(3,5-Dimethylphenyl)sulfonyl]-4-methyl-5-(4,6,7,8-tetrahydro-5H-thieno[3,2-c]azepin-5-ylcarbonyl)-1H-pyrrole-2-carboxamide] | > 8
3 | COc1ccc2c(c1)CN(C(=O)c1[nH]c(C(N)=O)c(S(=O)(=O)c3cc(Cl)cc(Cl)c3)c1C)CCC2 [Example 81, 3-[(3,5-dichlorophenyl)sulfonyl]-4-methyl-5-(8-methoxy-1,3,4,5-tetrahydro-2H-2-benzazepin-2-ylcarbonyl)-1H-pyrrole-2-carboxamide] | > 8
4 | Cc1c(C(=O)N2CCCc3ccc(O)cc3C2)[nH]c(C(N)=O)c1S(=O)(=O)c1cc(Cl)cc(Cl)c1 [Example 82, 3-[(3,5-dichlorophenyl)sulfonyl]-4-methyl-5-(8-hydroxy-1,3,4,5-tetrahydro-2H-2-benzazepin-2-ylcarbonyl)-1H-pyrrole-2-carboxamide] | > 8
5 | Cc1c(C(=O)N2CCCc3ccccc3C2)[nH]c(C(N)=O)c1S(=O)(=O)c1cc(Cl)cc(Cl)c1 [Example 83, 3-[(3,5-dichlorophenyl)sulfonyl]-4-methyl-5-(1,3,4,5-tetrahydro-2H-2-benzazepin-2-ylcarbonyl)-1H-pyrrole-2-carboxamide] | > 8
6 | Cc1c(C(=O)N2CCCc3sccc3C2)[nH]c(C(N)=O)c1S(=O)(=O)c1cc(Cl)cc(Cl)c1 [Example 84, 3-[(3,5-dichlorophenyl)sulfonyl]-4-methyl-5-(4,6,7,8-tetrahydro-5H-thieno[3,2-c]azepin-5-ylcarbonyl)-1H-pyrrole-2-carboxamide] | > 8
7 | COc1ccc2c(c1)CCCN(C(=O)c1[nH]c(C(N)=O)c(S(=O)(=O)c3cc(Cl)cc(Cl)c3)c1C)C2 [Example 85, 3-[(3,5-dichlorophenyl)sulfonyl]-4-methyl-5-(7-methoxy-1,3,4,5-tetrahydro-2H-2-benzazepin-2-ylcarbonyl)-1H-pyrrole-2-carboxamide] | > 8
8 | Cc1c(C(=O)N2CCCc3cc(O)ccc3C2)[nH]c(C(N)=O)c1S(=O)(=O)c1cc(Cl)cc(Cl)c1 [Example 86, 3-[(3,5-dichlorophenyl)sulfonyl]-4-methyl-5-(7-hydroxy-1,3,4,5-tetrahydro-2H-2-benzazepin-2-ylcarbonyl)-1H-pyrrole-2-carboxamide] | > 8
9 | COc1ccc2c(c1)CCCN(C(=O)c1[nH]c(C(N)=O)c(S(=O)(=O)c3cc(C)cc(C)c3)c1C)C2 [Example 87, 3-[(3,5-dimethylphenyl)sulfonyl]-4-methyl-5-(7-methoxy-1,3,4,5-tetrahydro-2H-2-benzazepin-2-ylcarbonyl)-1H-pyrrole-2-carboxamide] | > 8
10 | Cc1cc(C)cc(S(=O)(=O)c2c(C(N)=O)[nH]c(C(=O)N3CCCc4cc(O)ccc4C3)c2C)c1 [Example 88, 3-[(3,5-dimethylphenyl)sulfonyl]-4-methyl-5-(7-hydroxy-1,3,4,5-tetrahydro-2H-2-benzazepin-2-ylcarbonyl)-1H-pyrrole-2-carboxamide] | > 8
11 | COc1ccc2c(c1)CN(C(=O)c1[nH]c(C(N)=O)c(S(=O)(=O)c3cc(C)cc(C)c3)c1C)CCC2 [Example 89, 3-[(3,5-dimethylphenyl)sulfonyl]-4-methyl-5-(8-methoxy-1,3,4,5-tetrahydro-2H-2-benzazepin-2-ylcarbonyl)-1H-pyrrole-2-carboxamide] | > 8
12 | Cc1cc(C)cc(S(=O)(=O)c2c(C(N)=O)[nH]c(C(=O)N3CCCc4ccc(O)cc4C3)c2C)c1 [Example 90, 3-[(3,5-dimethylphenyl)sulfonyl]-4-methyl-5-(8-hydroxy-1,3,4,5-tetrahydro-2H-2-benzazepin-2-ylcarbonyl)-1H-pyrrole-2-carboxamide] | > 8
13 | COc1ccc2c(c1)CN(C(=O)c1[nH]c(C(N)=O)c(S(=O)(=O)c3ccccc3)c1C)CCC2 [Example 91, 3-(phenylsulfonyl)-4-methyl-5-(8-methoxy-1,3,4,5-tetrahydro-2H-2-benzazepin-2-ylcarbonyl)-1H-pyrrole-2-carboxamide] | > 8
14 | Cc1c(C(=O)N2CCCc3ccc(O)cc3C2)[nH]c(C(N)=O)c1S(=O)(=O)c1ccccc1 [Example 92, 3-(phenylsulfonyl)-4-methyl-5-(8-hydroxy-1,3,4,5-tetrahydro-2H-2-benzazepin-2-ylcarbonyl)-1H-pyrrole-2-carboxamide] | > 8
15 | COc1ccc2c(c1)CN(C(=O)c1[nH]c(C(N)=O)c(S(=O)(=O)c3cccc(F)c3)c1C)CCC2 [Example 93, 3-[(3-fluorophenyl)sulfonyl]-4-methyl-5-(8-methoxy-1,3,4,5-tetrahydro-2H-2-benzazepin-2-ylcarbonyl)-1H-pyrrole-2-carboxamide] | > 8
16 | Cc1c(C(=O)N2CCCc3ccc(O)cc3C2)[nH]c(C(N)=O)c1S(=O)(=O)c1cccc(F)c1 [Example 94, 3-[(3-fluorophenyl)sulfonyl]-4-methyl-5-(8-hydroxy-1,3,4,5-tetrahydro-2H-2-benzazepin-2-ylcarbonyl)-1H-pyrrole-2-carboxamide] | > 8
17 | COc1ccc2c(c1)CN(C(=O)c1[nH]c(C(N)=O)c(S(=O)(=O)c3cccc(C(F)(F)F)c3)c1C)CCC2 [Example 95, 3-[(3-(1,1,1-trifluoromethyl)phenyl)sulfonyl]-4-methyl-5-(8-methoxy-1,3,4,5-tetrahydro-2H-2-benzazepin-2-ylcarbonyl)-1H-pyrrole-2-carboxamide] | > 8
18 | Cc1c(C(=O)N2CCCc3sc(Cl)cc3C2)[nH]c(C(N)=O)c1S(=O)(=O)c1cc(Cl)cc(Cl)c1 [Example 96, 3-[(3,5-Dichlorophenyl)sulfonyl]-4-methyl-5-[(2-chloro-4,6,7,8-tetrahydro-5H-thieno[3,2-c]azepin-5-yl)carbonyl]-1H-pyrrole-2-carboxamide] | > 8
19 | Cc1c(C(=O)N2CCCc3sc(S(C)(=O)=O)cc3C2)[nH]c(C(N)=O)c1S(=O)(=O)c1cc(Cl)cc(Cl)c1 [Example 97] | > 8
20 | Cc1cc(C)cc(S(=O)(=O)c2c(C(N)=O)[nH]c(C(=O)N3CCCc4sc(S(C)(=O)=O)cc4C3)c2C)c1 [Example 98, 3-[(3,5-Dimethylphenyl)sulfonyl]-4-methyl-5-[(2-(methylsulfonyl)-4,6,7,8-tetrahydro-5H-thieno[3,2-c]azepin-5-yl)carbonyl]-1H-pyrrole-2-carboxamide] | > 8
21 | CC(C)c1c(C(=O)N(C)Cc2ccnc(N)c2)[nH]c(C(N)=O)c1S(=O)(=O)c1cccc(F)c1 [Example 99, N5-[(2-aminopyridin-4-yl)methyl]-3-[(3-fluorophenyl)sulfonyl]-4-isopropyl-N5-methyl-1H-pyrrole-2,5-dicarboxamide] | > 8
22 | CC(C)c1c(C(=O)N(C)Cc2ccnc(N)c2)[nH]c(C(N)=O)c1S(=O)(=O)c1cc(F)cc(F)c1 [Example 100, N5-[(2-aminopyridin-4-yl)methyl]-3-[(3,5-difluorophenyl)sulfonyl]-4-isopropyl-N5-methyl-1H-pyrrole-2,5-dicarboxamide] | > 8
23 | CC(C)c1c(C(=O)N(C)Cc2ccnc(N)c2)[nH]c(C(N)=O)c1S(=O)(=O)c1ccccc1 [Example 101] | > 8
24 | Cc1cc(C)cc(S(=O)(=O)c2c(C(N)=O)[nH]c(C(=O)N(C)Cc3ccnc(N)c3)c2C(C)C)c1 [Example 102, N5-[(2-aminopyridin-4-yl)methyl]-3-[(3,5-dimethylphenyl)sulfonyl]-4-isopropyl-N5-methyl-1H-pyrrole-2,5-dicarboxamide] | > 8
25 | Cc1cc(C)cc(S(=O)(=O)c2c(C(N)=O)[nH]c(C(=O)N(C)Cc3cc(N)ncc3F)c2C)c1 [Example 103, N5-[(2-amino-5-fluoropyridin-4-yl)methyl]-3-[(3,5-dimethylphenyl)sulfonyl]-N5,4-dimethyl-1H-pyrrole-2,5-dicarboxamide] | > 8
26 | CC(C)c1c(C(=O)N(C)Cc2cc(N)ncc2F)[nH]c(C(N)=O)c1S(=O)(=O)c1ccccc1 [Example 104] | > 8
27 | Cc1cc(C)cc(S(=O)(=O)c2c(C(N)=O)[nH]c(C(=O)N(C)Cc3ccncc3Cl)c2C)c1 [Example 105, N5-[(3-chloropyridin-4-yl)methyl]-3-[(3,5-dimethylphenyl)sulfonyl]-N5,4-dimethyl-1H-pyrrole-2,5-dicarboxamide] | > 8
28 | CC(C)c1c(C(=O)N(C)Cc2ccncc2Cl)[nH]c(C(N)=O)c1S(=O)(=O)c1ccccc1 [Example 106, N2-[(3-chloropyridin-4-yl)methyl]-3-isopropyl-N2-methyl-4-(phenylsulfonyl)-1H-pyrrole-2,5-dicarboxamide] | > 8
